{"sequences": {"note": "Amino acid sequences for entries named in this document (tags omitted). A change or cut given only in a name is not applied to a line headed by its entry.", "UniProt O14746": "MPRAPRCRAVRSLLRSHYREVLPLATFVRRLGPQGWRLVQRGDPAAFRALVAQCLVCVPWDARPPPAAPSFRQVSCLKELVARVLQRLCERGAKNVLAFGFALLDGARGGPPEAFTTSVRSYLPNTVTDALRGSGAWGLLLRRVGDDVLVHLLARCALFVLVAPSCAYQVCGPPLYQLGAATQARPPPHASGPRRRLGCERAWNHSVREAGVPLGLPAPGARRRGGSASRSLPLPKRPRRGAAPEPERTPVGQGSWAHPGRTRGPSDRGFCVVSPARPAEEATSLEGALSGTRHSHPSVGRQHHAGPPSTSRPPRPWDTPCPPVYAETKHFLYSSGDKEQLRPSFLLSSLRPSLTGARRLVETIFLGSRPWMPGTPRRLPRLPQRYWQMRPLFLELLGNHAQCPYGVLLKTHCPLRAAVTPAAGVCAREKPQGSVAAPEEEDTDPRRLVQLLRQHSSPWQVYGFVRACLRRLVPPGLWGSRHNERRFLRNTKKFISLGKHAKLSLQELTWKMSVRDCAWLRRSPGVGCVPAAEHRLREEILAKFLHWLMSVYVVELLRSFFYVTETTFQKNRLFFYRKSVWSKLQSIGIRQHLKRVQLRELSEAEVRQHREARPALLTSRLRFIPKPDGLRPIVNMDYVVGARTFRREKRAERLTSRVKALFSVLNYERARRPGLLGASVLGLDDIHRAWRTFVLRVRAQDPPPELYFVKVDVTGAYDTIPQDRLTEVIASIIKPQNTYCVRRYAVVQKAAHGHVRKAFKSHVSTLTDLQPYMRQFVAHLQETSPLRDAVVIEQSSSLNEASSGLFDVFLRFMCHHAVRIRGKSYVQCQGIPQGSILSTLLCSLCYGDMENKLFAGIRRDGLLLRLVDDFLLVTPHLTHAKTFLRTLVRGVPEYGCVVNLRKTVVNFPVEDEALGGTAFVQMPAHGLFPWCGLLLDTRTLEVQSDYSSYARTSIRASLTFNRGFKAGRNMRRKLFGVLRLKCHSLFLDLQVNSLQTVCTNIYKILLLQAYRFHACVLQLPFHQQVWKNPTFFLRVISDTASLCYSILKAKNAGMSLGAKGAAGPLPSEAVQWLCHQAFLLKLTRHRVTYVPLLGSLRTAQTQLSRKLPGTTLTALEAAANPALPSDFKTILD"}, "source": "patent US20050282893A1", "about": "(priority 2004, published 2005)", "key": {"telomerase [1]": {"target": "T1, telomerase (Homo sapiens, UniProt O14746)", "assay": "Intracellular TRAP, telomerase activity in intact cells", "type": "cell-based", "conditions": "human cancer cells"}, "[2]": {"system": "telomere length in FaDu and PC3 cells", "assay": "Telomere length in cultured cells after prolonged treatment (TALA / FISH)", "type": "cell-based, human", "conditions": "prolonged treatment (7-15 weeks)", "description": "Measurement of telomere length in cultured cells. Two methods were used to measure telomere length. The first method was a solution hybridization based telomere amount and length assay (TALA) (Gan, et al., Pharm. Res., 18:1655-1659, 2001) that measures the mean length of the terminal restriction fragments (TRF). The second method was fluorescence in situ hybridization (FISH) to detect telomere signal and to estimate the approximate length of individual telomere structures at the end of chromosomes. The FISH method is as described in U.S. patent application Ser. No. 09/587,662 and Gan, et al., 2001.\nTreatment Protocol. Treatment with suramin or AZT was initiated after cells were allowed to attach to the growth surface in culture flasks. On the day of experiments, the culture medium was removed and replaced with inhibitor-containing medium."}, "[3]": {"system": "human pharynx FaDu xenografts", "conditions": "10-day follow-up period"}, "telomerase [4]": {"target": "T1, telomerase", "assay": "Telomerase IC50 determination, general method", "type": "biochemical", "conditions": "read-out: IC50 against telomerase", "description": "One method used to identify compounds of the invention that inhibit telomerase activity involves placing cells, tissues, or preferably a cellular extract or other preparation containing telomerase, in contact with several known concentrations of a test compound in a buffer compatible with telomerase activity. […] Other methods for determining the inhibitory concentration of a compound of the invention against telomerase can be employed as will be apparent to those of skill in the art based on the disclosure herein."}}, "note": "Some entries share one result that the patent states for a list of compounds."}
{"compound": "Cc1ccc(C(=O)Nc2ccc(S(=O)(=O)O)c3cc(S(=O)(=O)O)cc(S(=O)(=O)O)c23)cc1NC(=O)c1cccc(NC(=O)Nc2cccc(C(=O)Nc3cc(C(=O)Nc4ccc(S(=O)(=O)O)c5cc(S(=O)(=O)O)cc(S(=O)(=O)O)c45)ccc3C)c2)c1", "note": "[Suramin, suramin]", "values": [{"measurement": "concentrations required for 90% inhibition of telomerase activity", "setting": "telomerase [1]", "result": "less than 50 micromolar"}, {"measurement": "telomere shortening", "setting": "[2]", "result": "34-55%"}]}
{"compound": "CC(=O)O[C@H]1C(=O)[C@@]2(C)[C@H]([C@H](OC(=O)c3ccccc3)[C@]3(O)C[C@H](OC(=O)[C@H](O)[C@@H](NC(=O)c4ccccc4)c4ccccc4)C(C)=C1C3(C)C)[C@]1(OC(C)=O)CO[C@@H]1C[C@@H]2O", "note": "[paclitaxel]", "values": [{"measurement": "change in tumor size", "setting": "[3]", "result": "up to 4 fold"}]}
{"compound": "pentosan polysulfate [PPS]", "values": [{"measurement": "IC50", "setting": "telomerase [4]", "result": "< 10", "unit": "µM"}]}
